Measurements as given in paper PMC12744885.

Target: Drosophila PH4αEFB (Drosophila melanogaster (endogenous in D17 cells))
Assay: affinity purification with mass spectrometry; both proteins endogenous in D17 lysate, recovered together on Gelatin Sepharose 4B after TBS and 1 M NaCl washes; gel bands identified by protein ID LC-MS

B1: Drosophila protein disulfide isomerase (enzyme, UniProt P54399 19-496)
chain: AEAEVKVEEGVLVATVDNFKQLIADNEFVLVEFYAPWCGHCKALAPEYAKAAQQLAEKESPIKLAKVDATVEGELAEQYAVRGYPTLKFFRSGSPVEYSGGRQAADIIAWVTKKTGPPAKDLTSVADAEQFLKDNEIAIIGFFKDLESEEAKTFTKVANALDSFVFGVSSNADVIAKYEAKDNGVVLFKPFDDKKSVFEGELNEENLKKFAQVQSLPLIVDFNHESASKIFGGSIKSHLLFFVSREGGHIEKYVDPLKEIAKKYRDDILFVTISSDEEDHTRIFEFFGMNKEEVPTIRLIKLEEDMAKYKPESDDLSAETIEAFLKKFLDGKLKQHLLSQELPEDWDKNPVKVLVSSNFESVALDKSKSVLVEFYAPWCGHCKQLAPIYDQLAEKYKDNEDIVIAKMDSTANELESIKISSFPTIKYFRKEDNKVIDFNLDRTLDDFVKFLDANGEVADSEPVEETEEEEEAPKKDEL
binding: binds

These are yes or no findings as the source states them, for the method shown. In cells and extracts the contact can be indirect. Here binding means that the protein was enriched with, or labelled near, the bait; the list need not be complete.
